HELM strings list residues between dots; [ac] is acetyl, [am] amide, other brackets name non-standard units.
Assay: general procedure: Boc solid-phase peptide synthesis; Boc-Phe-resin; dicyclohexylcarbodiimide (DCC)
Conditions: whole synthesis

Substance PEPTIDE1{F.M.R.F}$$$$V2.0 has an isolated mass of 0.23 g.

From patent publication US4587233A (Board of Trustees of the Leland Stanford Junior University, priority 1983, dated 1986)
